Drawing on article PMC11852955, this text covers binding for one substance.

For assay [1], the target named is T1, FosB (mouse (endogenous in DRG)) (UniProt P13346).
T1 sequence: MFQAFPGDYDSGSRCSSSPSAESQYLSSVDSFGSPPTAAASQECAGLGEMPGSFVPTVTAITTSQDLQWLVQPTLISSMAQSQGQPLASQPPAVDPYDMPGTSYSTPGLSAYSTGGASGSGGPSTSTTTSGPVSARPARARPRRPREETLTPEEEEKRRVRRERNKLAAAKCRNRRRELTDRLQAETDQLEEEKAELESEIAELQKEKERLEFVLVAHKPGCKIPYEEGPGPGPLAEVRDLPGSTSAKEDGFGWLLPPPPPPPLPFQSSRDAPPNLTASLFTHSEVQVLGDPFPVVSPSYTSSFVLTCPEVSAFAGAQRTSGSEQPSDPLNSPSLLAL
Description: co-IP; lysates of mouse DRG (control, STZ diabetic, Ascl1/Lhx6-treated STZ groups); immunoprecipitation buffer with Tris-HCl, NaCl, MgCl2, EDTA, Triton X-100, glycerol; precleared with protein A/G PLUS-agarose; immunoprecipitated with rabbit anti-c-Fos, anti-JunD, anti-FosB, anti-FoxK1, anti-GNG3; washed with 50 mM Tris-HCl pH 7.4, 150 mM NaCl, 10 mM EDTA, 1% NP-40.

In assay [2] the target is T2, JunD (mouse (endogenous in DRG)) (UniProt P15066).
T2 sequence: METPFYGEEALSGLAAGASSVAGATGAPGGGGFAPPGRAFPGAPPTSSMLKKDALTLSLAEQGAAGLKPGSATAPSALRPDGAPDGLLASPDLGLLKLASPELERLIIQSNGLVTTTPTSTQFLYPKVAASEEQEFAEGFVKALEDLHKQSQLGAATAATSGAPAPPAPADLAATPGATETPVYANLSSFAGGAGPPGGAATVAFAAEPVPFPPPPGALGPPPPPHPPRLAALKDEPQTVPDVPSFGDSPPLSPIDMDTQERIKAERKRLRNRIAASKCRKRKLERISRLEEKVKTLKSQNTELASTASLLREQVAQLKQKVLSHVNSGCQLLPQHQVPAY
Described as above.

No constants are given. Whether binding was seen depends on the method and setting. Binding seen in cells or lysates may run through a third protein.

In the case of Foxn3 (mouse (endogenous in DRG)), the binding entry in assay [1] and in assay [2] was “no binding” throughout.
